# Reference: PubChem BioAssay AID1439 (NMMLSC, 2008)
# By UniProt entry, the sequences of proteins in these tests, tags left out.
# UniProt P09471, whole entry, looked up: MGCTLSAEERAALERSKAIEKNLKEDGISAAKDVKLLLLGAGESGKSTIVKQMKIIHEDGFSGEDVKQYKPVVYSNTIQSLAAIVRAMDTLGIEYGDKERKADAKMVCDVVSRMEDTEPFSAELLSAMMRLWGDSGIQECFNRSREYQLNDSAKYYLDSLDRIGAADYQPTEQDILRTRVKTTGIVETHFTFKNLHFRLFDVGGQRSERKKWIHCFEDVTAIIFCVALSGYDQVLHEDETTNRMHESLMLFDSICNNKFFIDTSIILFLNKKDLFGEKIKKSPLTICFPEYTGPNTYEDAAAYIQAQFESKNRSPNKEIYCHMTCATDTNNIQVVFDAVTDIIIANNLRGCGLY
# Values joined by “and” are separate entries in the source; they are usually repeats but may differ in a detail not shown here. Identical values can stand only once. Hit rate of the full screen: of about 220,000 compounds, about 770 (0.35%) were called active. The inconclusive results got no clear call from the source; some entries with a clear call stand among them for comparison. Cut-off read from the data, not from the text of the source: active = binding response below about 49% or above about 150%; inconclusive = no clear call, values can overlap the other calls; inactive = in between.
# Molecular target: Guanine nucleotide-binding protein G(o) subunit alpha (Homo sapiens) (UniProt P09471)
# Assay: RGS7-Galphao binding modulators, primary screen, biochemical, multiplexed bead flow cytometry (AID 1439);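 note: fluorescent Galphao held in activated GDP-AlF4 state binding bead-coupled RGS7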
# Settings: at 10 µM, actives lie on both sides
row,Compound,binding response (% of control)
1,CN(C)S(=O)(=O)c1ccc(NC=C(C#N)C#N)cc1,inconclusive: 87.4%
2,CCOC(=O)c1nnsc1-c1ccc(-c2snnc2C(=O)OCC)cc1,inconclusive: 116%
3,Cc1ccc(Nc2nc(=O)c3cccnc3s2)c(Br)c1,inconclusive: 109%
4,O=C(Nc1ccc2c(c1)OCO2)N1CCCc2ccccc21,inconclusive: 103%
5,O=C(C1CCC(CNS(=O)(=O)c2cccs2)CC1)N1CCCCC1 (stereo not drawn),inactive: 95.1%
6,Cc1cc(C)c2c(N)c(C(=O)c3ccccc3Cl)sc2n1,inconclusive: 180%
7,COc1ccc(CNC(=O)C2CCCN2C)cc1OC (stereo not drawn),inconclusive: 109%
8,COc1ccccc1/C=N/NC(=O)c1nnn(-c2nonc2N)c1CSC1=NCCS1,inactive: 103%
9,O=C(O)C/C=C(\NC(=O)OCc1ccccc1)C(=O)OCc1ccccc1,inactive: 101%
10,Cc1ccc2c(c1)-c1[nH]c(=S)ncc1CS2,inactive: 100%
11,Cc1csc2c(=O)sc(NC(=O)c3ccco3)nc12,inconclusive: 105%
12,CCOc1ccccc1NC(=S)Nc1ccc(S(N)(=O)=O)cc1,inactive: 99.3%
13,O=C(CC(=O)Nc1nc(C23CC4CC(CC(C4)C2)C3)cs1)NCCO,inconclusive: 102%
14,CCc1ccc2nc(SCC(=O)Nc3ccccc3N3CCOCC3)c(C#N)cc2c1,inconclusive: 91.8%
15,[O-]c1c[n+](-c2ccc(-[n+]3cc([O-])on3)cc2)no1,inactive: 94.5%
16,CCc1ccc2c(COC(=O)c3n[nH]c4ccccc34)cc(=O)oc2c1,inactive: 111%
17,COc1ccccc1CNc1nc2nc(C)cc(=O)n2[nH]1,inactive: 100%
18,Cn1c(COc2cccc3ccccc23)nnc1SCC(=O)OC1CCCCC1,inconclusive: 100%
19,CCOC(=O)C1(CC2CCCCO2)CCN(C(=O)Nc2ccc(C(=O)OC)cc2)CC1 (stereo not drawn),inactive: 97.6%
20,Cn1cnnc1SCC(=O)Nc1sccc1C#N,inactive: 102%
21,COCC(=O)N(CCc1ccc(OC)c(OC)c1)Cc1cc2cc(C)ccc2nc1Cl,inactive: 97.8%
22,Cc1nc(C)c(C(=O)O)s1,inconclusive: 91.3%
23,Cc1cccc(-n2c(SCC(=O)NCc3ccc4c(c3)OCO4)nc3ccccc3c2=O)c1,inactive: 131%
24,O=C(/C=C/c1ccco1)N(Cc1ccc(Cl)cc1)C1CCS(=O)(=O)C1 (stereo not drawn),inconclusive: 104%

row,Compound,binding response (% of control)
1,COC(=O)c1ccc(Oc2nc(NC(C)C)nc(NC(C)C)n2)cc1,inconclusive: 103%
2,CCOc1ccc(CN(C)CC(=O)Nc2ccc(N3CCOCC3)cc2)cc1OC,inactive: 97.4%
3,Nc1ccc(C(=O)OCC(=O)NC2CCS(=O)(=O)C2)cc1[N+](=O)[O-] (stereo not drawn),inconclusive: 289%
4,COC(=O)C(NC(=O)CNS(=O)(=O)c1ccc(Br)cc1)c1ccccc1 (stereo not drawn),inactive: 101%
5,CNCCCCOc1ccc(C(C)(C)C)cc1Cl,inconclusive: 79.7%
6,COc1nc(Nc2ccc(C(C)=O)cc2)nc(OC)n1,inactive: 149%
7,O=C(N1CCCCC1)N1CCC(c2nc3ccccc3[nH]2)CC1,inconclusive: 118%
8,Cc1ccc2nc(-c3cc(-c4ccccc4)no3)cn2c1,inconclusive: 91.6%
9,CC1=NCCN1CCNC(=O)Nc1cc(C)cc(C)c1,inconclusive: 344%
10,C/C(=N\O)c1c(O)cc(-c2ccccc2)n(-c2ccccc2)c1=O,inconclusive: 182%
11,CCC(C)NC(=O)C1c2ccccc2Oc2ccccc21 (stereo not drawn),inconclusive: 108%
12,CC(C)[C@H](NC(=O)c1ccco1)C(=O)NC12CC3CC(CC(C3)C1)C2,inconclusive: 106%
13,COc1ccc(NC2SC(=O)N(C)C2=O)cc1 (stereo not drawn),inactive: 104%
14,C=CCOc1ccc(-c2nc3c(c(=O)[nH]c(=O)n3CCCC)n2C)cc1OC,inconclusive: 108%
15,Cc1cc(C)n(-c2ccc(C(=O)Nc3cccnc3)cc2)n1,inconclusive: 40.2%
16,O=C1c2ccccc2NC(c2cccc(O)c2)N1Cc1ccco1 (stereo not drawn),inconclusive: 112%
17,CCO[C@H]1OC(C(=O)NCc2ccccc2)=C[C@@H](c2ccc3c(c2)OCO3)[C@@H]1CCCO,inactive: 103%
18,Cc1cc(C)c[n+](C(C)C(=O)c2ccc(-c3ccccc3)cc2)c1 (stereo not drawn),inactive: 103%
19,O=C(NCCc1c[nH]c2ccc(Cl)cc12)c1ccc([N+](=O)[O-])cc1,inconclusive: 146%
20,CC(C)(C)C(=O)Nc1ccc(-c2csnn2)cc1,inconclusive: 52.8%
21,CC(C)CCN1CCN(Cc2nc3c(s2)CCCC3)CC1CCO (stereo not drawn),active: 27.4%
22,C(=C\c1ccc(/C=C/c2ccccc2)nn1)/c1ccccc1,inconclusive: 90.9%
23,O=C(N/N=C/c1ccccc1[N+](=O)[O-])c1ccc2nc[nH]c2c1,inconclusive: 103%
24,O=C(C[n+]1cccc(O)c1)Nc1ccc(Br)cc1,inconclusive: 103%

row,Compound,binding response (% of control)
1,CCOc1c(N2CC(C)OC(C)C2)c(=O)c1=O (stereo not drawn),inconclusive: 106%
2,CCc1cccc(NC(=O)c2ccc3c(=O)n4c(nc3c2)CCCCC4)c1,inconclusive: 110%
3,O=C(C[n+]1cn(C(F)F)c2ccccc21)c1ccc(Br)cc1,inconclusive: 90.7%
4,CCOCCCNC(=O)Cn1cc2c(n1)CCCCC2,inactive: 91.6%
5,CCN(CC)S(=O)(=O)c1ccc(C)c(NC(=O)CN2CCN(Cc3ccccc3)CC2)c1,inconclusive: 63.1%
6,C=CCn1c(N/N=C/c2ccc(O)cc2)nc2ccccc2c1=O,inconclusive: 82.8%
7,O=C(/C=C/c1ccco1)Nc1nc(-c2ccc(F)c(F)c2)cs1,inconclusive: 88.1%
8,OCCN(CC#CC(O)(c1ccccc1)c1ccccc1)CCO,inconclusive: 172%
9,CC(/C=N/NC(=O)c1cc(-c2cccnc2)nc2c1c(C)nn2-c1ccccc1)=C\c1ccccc1,inactive: 100%
10,Cc1nc(N)nc(N/N=C/c2ccccc2)n1,inconclusive: -23.8%
11,COc1ccc(S(=O)(=O)n2nc(-c3ccc(Cl)cc3)cc2N)cc1,inconclusive: 89.5%
12,COc1ccc(CCNC(=O)Cn2nnc(-c3ccc(N(C)C)cc3)n2)cc1OC,inactive: 99.3%
13,Nc1c(-c2n[nH]c(=S)n2-c2ccc(Cl)cc2Cl)cnn1-c1ccccc1,inconclusive: 76%
14,CC1(C)C(=O)OC(c2ccccc2)C(C)(C)C1=O (stereo not drawn),inconclusive: -2.55%
15,CCCCNc1ccc(C(CC(N)=O)NC(=O)Cc2ccc(Br)cc2)cc1[N+](=O)[O-] (stereo not drawn),inconclusive: 100%
16,Cc1nc([N+](=O)[O-])cn1CC(O)c1ccc(F)cc1 (stereo not drawn),inconclusive: 89.5%
17,C=CCn1c(SCC(=O)Nc2ccccc2-c2ccccc2)nc2cc(C(=O)O)ccc2c1=O,inconclusive: 138%
18,CC(C)Cn1cnc2c(c(-c3ccccc3)c(-c3ccccc3)n2Cc2ccco2)c1=N,inactive: 102%
19,Cc1c(OCc2ccc(C(=O)O)cc2)ccc2c(-c3ccccc3)cc(=O)oc12,inconclusive: 107%
20,CC(/C=N/N1C(=O)CSC1=S)=C\c1ccccc1,inactive: 102%
21,OCCN(CCO)CC(O)COc1ccc(Br)cc1 (stereo not drawn),inconclusive: 68% and inconclusive: 172%
22,O=C(OCc1ccc(Cl)cc1)c1cnccn1,inactive: 98.5%
23,Cc1onc(-c2ccccc2)c1C(=O)N=C(N)c1ccc(C(F)(F)F)cc1,inconclusive: 84.8%
24,CCOC(=O)c1cccc(Nc2ncnc3ccc(C)cc23)c1,inactive: 93.2%

row,Compound,binding response (% of control)
1,Cc1oc(-c2cc(F)cc(F)c2)nc1CN1CCSCC1,inconclusive: 112%
2,COC(C[C@@H](O)CC(=O)[C@H](C)OCc1ccccc1)OC,inconclusive: 96.1%
3,O=C(OCn1nnc2ccccc2c1=O)c1cc2ccccc2o1,inconclusive: 46.1%
4,COc1ccc(NC(=S)N2CCNC(=O)C2CC(=O)Nc2cccc(Cl)c2C)cc1 (stereo not drawn),inactive: 94.3%
5,O=C(CSc1n[nH]c(=O)[nH]c1=O)N/N=C/C=C/c1ccccc1,inconclusive: 110%
6,COC(=O)c1ccc(C(=O)OC)c(NC(=S)N2CCN(C)CC2)c1,inconclusive: 100%
7,COc1ccc(/C=N/NC(=S)Nc2ccccc2)cc1COc1cccc(C)c1C,inconclusive: 77.2%
8,Cc1ccc(S(=O)(=O)N2CCCC(C(=O)NNCC(=O)Nc3cc(F)ccc3F)C2)cc1 (stereo not drawn),inconclusive: 119%
9,O=C(NC12CC3CC(CC(C3)C1)C2)N(Cc1ccccc1)Cc1ccncc1,inactive: 102%
10,CNC(=O)COC(=O)c1cc2c(C)nn(-c3ccc(F)cc3)c2s1,inactive: 101%
11,CCc1cc2c(COC(=O)c3c(C)noc3C)cc(=O)oc2cc1O,inconclusive: 102%
12,CN(C)S(=O)(=O)c1ccc(Cl)c(NC(=O)CN2CCN(Cc3ccc4c(c3)OCO4)CC2)c1,inconclusive: 108%
13,COc1ccc(/C=N/NC(=O)c2[nH]c3ccc(Br)cc3c2-c2ccccc2)c(C(=O)O)c1OC,inconclusive: 88.8%
14,CCc1nnc(NC(=O)CSc2nc3cc(OC)ccc3cc2C)s1,inactive: 93.3%
15,O=C1CNC(=S)N1CCc1ccccc1Cl,inconclusive: 119%
16,Cc1cccn2c(=O)c(C=O)c(N3CCN(c4ccccc4)CC3)nc12,inconclusive: 105%
17,NNC(=O)c1ccc(CSc2n[nH]c(=O)[nH]c2=O)cc1,inconclusive: 131%
18,O=S(=O)(NCc1cc(-c2ccccc2Cl)no1)c1ccc(Cl)cc1,inactive: 102%
19,COc1ccc(C(=O)c2c(N)sc3c2CCN(C(=O)OC(C)(C)C)C3)cc1,inconclusive: 107%
20,Cc1ccc(NCc2nnc3n2CCCCC3)c(C)c1,inconclusive: 105%
21,Cn1nc(C(=O)OCC(=O)Nc2cccc(S(=O)(=O)N3CCCC3)c2)c2ccccc2c1=O,inconclusive: 88.1%
